No constants are given. Whether binding was seen depends on the method and setting. Binding seen in cells or lysates may run through a third protein. These calls come from enrichment with a bait or labelling near it, and not all partners need be listed.
Molecular target: 2 × HA-tagged RAB7A T22N mutant (UniProt P51149)
Experiment: affinity purification with mass spectrometry; TBC1D15/17 DKO HCT116 cells with mCherry-Parkin and 2HA-RAB7A (T22N), DMSO or valinomycin 3 hr; cells cross-linked with 5 mM DTBP; lysis in MCLB buffer (0.5% NP40); anti-HA beads overnight at 4°C, HA peptide elution; CompPASS analysis

Amino acid sequences for entries named in this document (tags omitted). A change or cut given only in a name is not applied to a line headed by its entry.
UniProt P51149: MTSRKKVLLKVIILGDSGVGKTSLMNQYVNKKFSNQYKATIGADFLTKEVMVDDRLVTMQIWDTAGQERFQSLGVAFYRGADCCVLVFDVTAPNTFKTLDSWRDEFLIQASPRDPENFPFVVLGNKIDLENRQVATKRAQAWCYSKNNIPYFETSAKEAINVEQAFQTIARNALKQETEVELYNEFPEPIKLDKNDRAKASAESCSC
UniProt Q9NVJ2: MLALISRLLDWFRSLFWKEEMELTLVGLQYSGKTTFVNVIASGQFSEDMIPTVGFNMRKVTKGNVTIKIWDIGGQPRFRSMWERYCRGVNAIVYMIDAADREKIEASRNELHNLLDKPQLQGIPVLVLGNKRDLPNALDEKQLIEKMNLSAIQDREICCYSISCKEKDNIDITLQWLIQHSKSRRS

binding: binds
Substance: ARL8B (from UniProt Q9NVJ2 1-186)

— paper PMC5780041
